Test results: patent publication US7524811B2, “Anti-angiogenic peptides from the N-terminus of endostatin” (Children's Medical Center Corporation, priority 2003, dated 2009)

Columns and labels:
[1] = Zn binding capacity by flame atomic absorption after dialysis; conditions: for zinc ratio per molecule of peptide: from atomic absorption readings, peptide molecular weight taken as 3000; for final zinc concentration (atomic absorption reading): peptide 0.5 mg/ml in 20 mM Tris pH 8.0, excess Zn chloride 1 mM, dialyzed 72 hours
[2] = Sim et al. 1999; Ding et al. 1998; cited from earlier work

Molecule	zinc ratio per molecule of peptide [1]	final zinc concentration (atomic absorption reading) [1] [µg/mL]	atoms of zinc bound per molecule of endostatin [2]
ATAQDFQPVLHLVALNTPLSGGMRGIR [mP1-H1/3A]	0.1	1.05	
HTHQDFQPVLHLVALNTPLSGGMRGIR [mP1]	0.9	9.63	
wild type: wild type human endostatin of Sim et al. 1999 (protein, UniProt P39060 1572-1754, looked up, Endostatin) Endostatin: HSHRDFQPVLHLVALNSPLSGGMRGIRGADFQCFQQARAVGLAGTFRAFLSSRLQDLYSIVRRADRAAVPIVNLKDELLFPSWEALFSGSEGPLKPGARIFSFDGKDVLRHPTWPQKSVWHGSDPNGRRLTESYCETWRTEAPSATGQASSLLGGRLLGQSAASCHHAYIVLCIENSFMTASK			10 atoms of zinc per molecule
endostatin: endostatin employed for crystallization studies (Ding et al. 1998) (protein, UniProt P39060 1572-1754, looked up, Endostatin) Endostatin: HSHRDFQPVLHLVALNSPLSGGMRGIRGADFQCFQQARAVGLAGTFRAFLSSRLQDLYSIVRRADRAAVPIVNLKDELLFPSWEALFSGSEGPLKPGARIFSFDGKDVLRHPTWPQKSVWHGSDPNGRRLTESYCETWRTEAPSATGQASSLLGGRLLGQSAASCHHAYIVLCIENSFMTASK			1 atoms of zinc per molecule
